In patent publication US9993536B2, “Peptides and combination of peptides and scaffolds for use in immunotherapy against renal cell carcinoma (RCC) and other cancers” (immatics biotechnologies GmbH, priority 2015, dated 2018):

What was measured:
[1] = system: RCC samples; assay: Label-free relative LC-MS quantitation of HLA-presented peptides (presentation profile/score), RCC vs normal tissues; design: species or system human; key: very highly over-presented on tumors compared to a panel of normal tissues (+++); highly over-presented on tumors compared to a panel of normal tissues (++); over-presented on tumors compared to a panel of normal tissues (+); settings: tumors (RCC) compared to a panel of normal tissues
[2] = system: tumor samples of other tumor types; assay: LC-MS detection/over-presentation of peptides on additional tumor types vs normal tissues; design: species or system human; settings: for Additional Entities: additional tumor types: over-presentation on more than 5% of measured tumor samples, or presentation on more than 5% with ratio of geometric means tumor vs normal larger than 3; for Other relevant organs/diseases: additional tumor types: over-presented on more than 5% of measured tumor samples, or presented on more than 5% with ratio of geometric means tumor vs normal tissues larger than 3; for peptide was also found on (other cancers, not shown) / cancer tissues with peptide presentation (number of samples) / normal tissues with peptide presentation (number of samples): FIG. 1 legend; for cancer tissues with peptide presentation (number of samples) / normal tissues with peptide presentation (number of samples): samples without peptide presentation are not shown

Row | Substance | Peptide Presentation (presentation score) [1] | Additional Entities [2] | Other relevant organs/diseases [2] | further results
1 | 19 (LLDPGSLQL; listed as Homo sapiens) [compound 19] | + |  |  | 
2 | 78 (ALLDTVVQA; listed as Homo sapiens) [compound 78] | + | BRCA | Liver, Prostate | 
3 | SEQ ID NO.: 1 (ALIVSLPYL; listed as Homo sapiens) |  |  |  | peptide was also found on (other cancers, not shown) [2]: liver cancer
4 | SEQ ID NO.: 128 (YLEEDVYQL; listed as Homo sapiens) |  |  |  | peptide was also found on (other cancers, not shown) [2]: pancreatic cancer, ovarian cancers, stomach cancer, and lung cancer
5 | 111 (TLLETEMLL; listed as Homo sapiens) [compound 111] | +++ | Urinary bladder cancer | Pancreas, Breast | 
6 | 142 (SVDVSPPKV; listed as Homo sapiens) [compound 142] |  |  | Lung, Pancreas, Melanoma, Esophagus | 
7 | 138 (SLDTLMTYV; listed as Homo sapiens) [compound 138] | ++ |  | Lung, Brain, Colon, Rectum, Pancreas, Prostate, Leukocytes, Esophagus | 
8 | SEQ ID NO.: 39 (YLLNLNHLGL; listed as Homo sapiens) |  |  |  | cancer tissues with peptide presentation (number of samples) [2]: 19; normal tissues with peptide presentation (number of samples) [2]: 1
9 | 8 (GLASFKSFL; listed as Homo sapiens) [compound 8] | +++ | Melanoma, Urinary bladder cancer, Uterine Cancer, Gallbladder Cancer, Bile Duct Cancer | Pancreas | 
10 | 26 (SLMEILYTL; listed as Homo sapiens) [compound 26] | +++ | Melanoma, Gallbladder Cancer, Bile Duct Cancer, AML, OC, SCLC | Colon, Rectum, Pancreas, Prostate, Ovary | 
11 | 15 (ILIKHLVKV; listed as Homo sapiens) [compound 15] | +++ | Uterine Cancer, NHL | Liver | 
12 | 32 (FLAGGIRGSGA; listed as Homo sapiens) [compound 32] | +++ |  | Stomach | 
13 | 30 (QLFYTKIFL; listed as Homo sapiens) [compound 30] | ++ | Melanoma, Esophageal Cancer, Urinary bladder cancer, Uterine Cancer, Gallbladder Cancer, Bile Duct Cancer | Lung, Colon, Rectum, Ovary | 
14 | 52 (SILDAVQRV; listed as Homo sapiens) [compound 52] | +++ | SCLC, BRCA, Melanoma, Uterine Cancer | Lung, Brain, Pancreas, Ovary | 
15 | 105 (ALADLDELLIRA; listed as Homo sapiens) [compound 105] | ++ | BRCA | Pancreas, Melanoma | 
16 | 85 (FVMSEIRTV; listed as Homo sapiens) [compound 85] |  | Uterine Cancer, Gallbladder Cancer, Bile Duct Cancer | Liver | 
17 | 141 (LLVDDSFLHTV; listed as Homo sapiens) [compound 141] | +++ |  | Brain, Liver, Pancreas, Melanoma, Ovary, Esophagus | 
18 | 77 (SLIKHKIML; listed as Homo sapiens) [compound 77] | ++ | CRC, Melanoma, Uterine Cancer |  | 
19 | 106 (VLMDLKALL; listed as Homo sapiens) [compound 106] | + | AML |  | 
20 | 98 (KIPPVSPSI; listed as Homo sapiens) [compound 98] | +++ | Uterine Cancer, NHL | Lung, Liver, Breast | 

Row | Substance | Peptide Presentation (presentation score) [1] | Additional Entities [2] | Other relevant organs/diseases [2] | further results
21 | 151 (YMYEGPAPRI; listed as Homo sapiens) [compound 151] | +++ |  |  | 
22 | 84 (YLMDEGAHL; listed as Homo sapiens) [compound 84] |  | Gallbladder Cancer, Bile Duct Cancer | Liver | 
23 | SEQ ID NO.: 82 (SLLQATDFMSL; listed as Homo sapiens) |  |  |  | cancer tissues with peptide presentation (number of samples) [2]: 36; normal tissues with peptide presentation (number of samples) [2]: 4
24 | 64 (LLAASVALA; listed as Homo sapiens) [compound 64] |  | Brain Cancer, AML |  | 
25 | 81 (SLLPALPKL; listed as Homo sapiens) [compound 81] |  | BRCA |  | 
26 | 76 (VLADDHLIEV; listed as Homo sapiens) [compound 76] |  | HCC, Gallbladder Cancer, Bile Duct Cancer |  | 
27 | 148 (KLLTEVHAA; listed as Homo sapiens) [compound 148] |  |  | Lung, Stomach, Colon, Rectum, Liver, Pancreas, Breast, Ovary, Esophagus | 
28 | SEQ ID NO.: 103 (KLQDGLLHI; listed as Homo sapiens) |  |  |  | cancer tissues with peptide presentation (number of samples) [2]: 29
29 | SEQ ID NO.: 12 (ALDPSGNQLI; listed as Homo sapiens) |  |  |  | peptide was also found on (other cancers, not shown) [2]: ovarian cancer, brain cancer, and lung cancer
30 | 11 (FIQTEAPKEV; listed as Homo sapiens) [compound 11] | +++ |  |  | 
31 | SEQ ID NO.: 33 (FIADVVEKI; listed as Homo sapiens) |  |  |  | cancer tissues with peptide presentation (number of samples) [2]: 16
32 | 46 (GLSEVLVQI; listed as Homo sapiens) [compound 46] |  | SCLC, HCC, Melanoma, Urinary bladder cancer, Gallbladder Cancer, Bile Duct Cancer, NHL | Colon, Rectum | 
33 | 149 (SILTIEDGIFEV; listed as Homo sapiens) [compound 149] |  |  | Lung, Brain, Colon, Rectum, Liver, Pancreas, Prostate, Leukocytes, Breast, Melanoma, Ovary | 
34 | 3 (RLLGEVQAL; listed as Homo sapiens) [compound 3] | +++ |  |  | 
35 | SEQ ID NO.: 135: peptide found in SLC16A3 (gene looked up) (VVDEGPTGV; listed as Homo sapiens) |  |  |  | cancer tissues with peptide presentation (number of samples) [2]: 77; normal tissues with peptide presentation (number of samples) [2]: 5
36 | 74 (GLFHKQVTV; listed as Homo sapiens) [compound 74] | + |  |  | 
37 | 146 (KLIDLSQVMYL; listed as Homo sapiens) [compound 146] |  |  | Lung, Colon, Rectum, Pancreas, Ovary | 
38 | 9 (ILLQKPDSV; listed as Homo sapiens) [compound 9] | +++ |  |  | 
39 | 95 (KLTDVGIATL; listed as Homo sapiens) [compound 95] |  | Melanoma, NHL |  | 
40 | 41 (GLLKTLQKL; listed as Homo sapiens) [compound 41] | + |  |  | 

Row | Substance | Peptide Presentation (presentation score) [1] | Additional Entities [2] | Other relevant organs/diseases [2] | further results
41 | 1 (ALIVSLPYL; listed as Homo sapiens) [compound 1] | +++ |  |  | 
42 | 70 (SLTALRLLL; listed as Homo sapiens) [compound 70] | + |  |  | 
43 | SEQ ID NO.: 15 (ILIKHLVKV; listed as Homo sapiens) |  |  |  | cancer tissues with peptide presentation (number of samples) [2]: 17
44 | 147 (ALADKELLPSV; listed as Homo sapiens) [compound 147] |  |  | Lung, Colon, Rectum, Liver, Pancreas, Melanoma, Ovary | 
45 | SEQ ID NO.: 38 (VLLDTILQL; listed as Homo sapiens) |  |  |  | cancer tissues with peptide presentation (number of samples) [2]: 67; normal tissues with peptide presentation (number of samples) [2]: 9
46 | 42 (VILDTGTIQL; listed as Homo sapiens) [compound 42] | +++ |  |  | 
47 | 144 (RLLDVLAPLV; listed as Homo sapiens) [compound 144] |  |  | Liver | 
48 | 82 (SLLQATDFMSL; listed as Homo sapiens) [compound 82] |  | NSCLC, Brain Cancer, BRCA, Melanoma, Uterine Cancer, NHL, PC | Colon, Rectum, Pancreas, Esophagus | 
49 | 59 (SLKNNVVSV; listed as Homo sapiens) [compound 59] |  | Melanoma, Uterine Cancer, Gallbladder Cancer, Bile Duct Cancer | Pancreas, Ovary, Esophagus | 
50 | SEQ ID NO.: 8 (GLASFKSFL; listed as Homo sapiens) |  |  |  | peptide was also found on (other cancers, not shown) [2]: prostate cancer, breast cancer, colon cancer, liver cancer, melanoma, ovarian cancer, esophageal cancer, pancreatic cancer, brain cancer, stomach cancer and lung cancer
51 | SEQ ID No.: 25 (LLVPAHLVAA; listed as Homo sapiens) |  |  |  | peptide was also found on (other cancers, not shown) [2]: pancreatic cancer, esophageal cancer, brain cancer, lung cancer and uterine cancer
52 | 60 (ILWKDIEYV; listed as Homo sapiens) [compound 60] | +++ |  |  | 
53 | SEQ ID NO.: 98 (KIPPVSPSI; listed as Homo sapiens) |  |  |  | cancer tissues with peptide presentation (number of samples) [2]: 47; normal tissues with peptide presentation (number of samples) [2]: 4
54 | 35 (VLHSLQTQL; listed as Homo sapiens) [compound 35] | +++ |  |  | 
55 | 58 (FLVDFEQSHL; listed as Homo sapiens) [compound 58] | ++ |  |  | 
56 | SEQ ID NO.: 52 (SILDAVQRV; listed as Homo sapiens) |  |  |  | cancer tissues with peptide presentation (number of samples) [2]: 23
57 | 118 (FLNAIETAL; listed as Homo sapiens) [compound 118] | +++ |  |  | 
58 | 54 (ALVAKGLVQA; listed as Homo sapiens) [compound 54] |  | NHL | Melanoma, Ovary | 
